Test results as given in publication PMC12370185.
The list shows a part of the results.

tested on: c-MYC + MAX + histone octamer; experiment: EMSA with sequencing; details: 10 mM Tris-Cl pH 7.5, 50 mM NaCl, 1 mM DTT, 0.25 mg/ml BSA, 2 mM MgCl2, 0.025% Nonidet P-40, 5% glycerol; 28 nM nucleosome library; 10 min on ice then 30 min …; high values mean tight binding; double strand, one strand shown

Row | Sequence | binding signal (log2 relative supershift)
1 | GATGGACCCTATACGCGGCATTTCTGTAGGACCCACCCACCTTCCACCCACATCTCCTCTCTAACCCCCGCTCCCAGTGCCTCACCTCCTGGCCTAAGCCCCGCCCATGAGCCATCCGACCCTGCCTCCCTAGGGTAACAAGGGTGGCGTGAGCGTGCGCCTGGCGGCCTTCGGGCACATGCTCTGCTTCCTGAACTGCCACTTGCCTGCTGCCAGTCGGATAGTGTTCC | 1.02
2 | GATGGACCCTATACGCGGCAGTAAGGTGGGCCCTTCACACCATGTGACTGGTATCCTTAAAAGAAGAAGAGACTCAGAGGGAAGACAGCCATGTGCAGCTGGAATGATGCATCTGAAGCCAAGGAATGCCACGCATTGCCAGCCACCACCCAAAACTGGAAAAAGTCAGGAAGGATTCTTCCCTAGAACCTTCAAAGGCAGCACAGCCCTTGCCAGTCGGATAGTGTTCC | 0.046
3 | GATGGACCCTATACGCGGCGGGAGCTCCACTGAGGAGGGTGTGAGACATCACCAGCTGTGCCTGCATCCCCATCACAATCTCATAGAGAGCGGGAACAGCTTCCCAGGGAACAGCTCCGCACCCTGGGCATGAACACGAGTGCGTGTGTGTGACTATGAGAGTGTGTGAGGGTGTATTTGGGCATGAGTGTGCTGTGTGCATGTGTATATTGCCAGTCGGATAGTGTTCC | 0.164
4 | GATGGACCCTATACGCGGCTGCCACCCTTGGCTGTACCAAGCTCTGGGAAGGAAGGAGGGGACGTGTCCCAGGTACCCCCTCCACCCACATTGGTGAGGCTGACTCAGGCCCCAGCCACGTGTCCCAACCTGCCCTGCGCGTCCCAGAGGGGAAGGAAGATATTCCAATGCTCCCAGGAGGCTGAGGTTGGGCAGGGAGCAGGAGAGAGGTGCCAGTCGGATAGTGTTCC | 0.558
5 | GATGGACCCTATACGCGGCTACTGTAGTGCAGCAAATATCTGTAGTGGCTAAAACTACATTTATTACTCCTTGTAAGTCTGTGTGTTTGCGGGGTAGATTAACTGATACAGGCTGGGCTTGACCAATCTCAATCTCAATGAGCTTGTTCATGTCCTGTGGTCAGTGGGGGATTGGCTAGTCTAGGATGGTCATGGCTGGGAGATATCATCTGCCAGTCGGATAGTGTTCC | 0.342
6 | GATGGACCCTATACGCGGCAGCTGGGAGAGGCTAGTAGGGTGTGTGGGCAGGGAGGGGTGGAGGAGTCCTGGGAGGAGAGGAAGGGAGGCACAGGGTAGGAGTGTGCAGAGCGGGGAGTGGATGGCAAACACACAATCCACCCAACCACATGTGCTCTTTACCCCCCAGCTGATCCAGAAGTACAAGGTGGTCCTGGCCCCGGAGACGGGTGCCAGTCGGATAGTGTTCC | 0.424
7 | GATGGACCCTATACGCGGCATAGCACAGTAGCTGTGAGGAAGTGACCGCTCAGGTGTTGGGTGATGTGTCTAGGGTCACATTGCCTAGAAGAGTGGCAGGGCTGCGCTTGCTGCAGGCTTGCTTGATCCTGAAGCCCTGGTTCCTCTCACCATGCCCTGGGCTGCAGAACTCACTTCTGGGCCTTGTAAGGCCGCTGGTGGGTAATGGTGTGCCAGTCGGATAGTGTTCC | 0.353
8 | GATGGACCCTATACGCGGCCCGCCCCAGCAGGCCCATTGCATCAGCTGCAGGCCGGGGGTTGGGGGGTGTCCCAGCCCTCAGCTTGCCCACTCCCTCCTGCCCAGCCCTGCCCTGGCTTTCCTGCTCTGCTCCCACCCACAGCTCCCTGACATTGTCACCTACCTCCTGAGCTGTCACCACAGGGCGCACGGGACTCCGCTGCCCCAGGTTGCCAGTCGGATAGTGTTCC | 1.05
9 | GATGGACCCTATACGCGGCCCTTCCTGCAGACCTGGCTGGGCCTGGGCTTCCACAGTGTGAAGACACTGTGCAGGCCCAGGCAGGCCCAGCCTCTGCCCCACCCATCAGTGGAGTCCAGATGGCAGGCTACAGTTGGGAAGTCTCAGCCTGGGCCCCTCAGCCACCCTTGGTCTCATGCCCCGCCATGGTCACCCTCAGGAACCCACCCTTGCCAGTCGGATAGTGTTCC | 0.394
10 | GATGGACCCTATACGCGGCATTGGGAATCTGGGAGCACTCTTCTTGGTGCCTTTGGCTCAGGATCACTCACAAGGCTGCAGTCAAGGTATCCCCTGGGGCAGCCATCGTCTCAAGCCTCCGCTGGAAGAGGGTGCATGTCCAAGCTTGCCCATGTGGCTGTGGGCAGGCCTCAAGTCTTCACTGGCTGTTGGCTGAAGGCATCAATTTCTTGCCAGTCGGATAGTGTTCC | 0.69
11 | GATGGACCCTATACGCGGCAGCATGATTCTCGCGATCCATTACTTCTGAAACAGATGACTCCCAGCAGCTGCTGCCTGTGGCCCACAGGGCTTCCTGCCCTGCATGACAGCTGCACATCACATCCTGTGGTCATACTACTTCAGCCGCTTCTACGGCCAGATACAAAAGTGGGTGGGGAACATAGGCAAGGGATCCAGCGACTTTACCGGTGCCAGTCGGATAGTGTTCC | 0.598
12 | GATGGACCCTATACGCGGCTGGTTTTCTTGCCTATATACACCACATACACCATATACCTATATACCTATACACATGTGGTGTATATAGAAGGGAAGTGTATGTGCTGTGTGTGCTGTGCATACTGTGGGTGGTGTAGTGATATATGCATATGTGGTGTGTGTGGAGTATATTGGGTGTGTGATGTGTATGGTATATATTGGGTGTGTGTGTGCCAGTCGGATAGTGTTCC | 0.403
13 | GATGGACCCTATACGCGGCATTGCCGTGGGAGTGCCAACTACTGTGGAATAACAGGCCCAGCCCTGCAGGCTCGGGCACGCTGTGCTGTAGGCCACAGCAACCACAGGCTCTGAGGCCTCTGGCCGCTCCAGGAGGGAGGGGTGCCGGGACAGAGACGCCCTCAGGCCTGGGAAGGCAAACTTGGAGGTGGGGTGGAGGGGACTTGAGGATGCCAGTCGGATAGTGTTCC | 0.0478
14 | GATGGACCCTATACGCGGCCCCACGGACACACATACATCAACACCCCCAAAACACACCCACATGTCACCAACTCTCAGGACACACGTAGATCAGGCACACACAGACACATGCCATCAGACCTCAACACACCACCAGACACCAACCCACCCTCCTCACGCAACCCTCAAACATCATCACCAACTGTCAGCAACACACACACACACACACCCTGCCAGTCGGATAGTGTTCC | 0.676
15 | GATGGACCCTATACGCGGCAGCCCCTGCCTCCCTCCCTGCAGCTCCCAGACAGGCTGGGCCCCAGCAGCAGGCCGGGCTGTCTGGCTGCTGTTCAACAGGGAGTCCAGCTGCCTGGGGTCCTACAGAACGGGGCTGGGCAGGCATTCTTCTCTGTCCAGGCTCTGGCTTCAGGGCCAGGAAGGCAGGAGTTGTTGAGGTGCCTTAGTTTTTGCCAGTCGGATAGTGTTCC | 0.195
16 | GATGGACCCTATACGCGGCATGAGCACTCCAGAGGTGGCAGCAAAAGCCACAGCCTGGGTCTATAGCACAAACATCTGGTCAGCACACAGTCACTGCCTTGCCCCACCCATCCCTTTGGCCTCCTCAGGCCTCCAACTGGTGGAGCCTTAGTCCCGCATCCACATGGCCACACCAGAGAAGAGAGCTAGGTGGAGGATGGGTCCCTCCCTTGCCAGTCGGATAGTGTTCC | 0.422
17 | GATGGACCCTATACGCGGCCTAAGTGCGGTCTCCAAATCACGATGATCAGCATCACTTGTTGGAACTTGTTGGGAATGCAAATTATCAAGCCCCACCCCAGACCTTTGTGATCTAAAAGCCCTCCAGGTGATTCTGATCCACACTGAAGCACGAGAACCACTGACCTTAGGAACTGTTACCTGTTCCTTTGCTTCCGTAGAGTGAAGTAATGCCAGTCGGATAGTGTTCC | 0.354
18 | GATGGACCCTATACGCGGCATGCTGTCTCTCTCACACATACACACATGGGCACATTCACAGGGATGCATACACGCCCCCACACCACATGCTTCCATACACATATGCATACATGAGGGCACATACACACGCCCATGCCACATGCTCACACACATACATGGGCACATACACAGGGGTGCATACACACCCATACCACCTCCTCTCACACACACTGCCAGTCGGATAGTGTTCC | 0.982
19 | GATGGACCCTATACGCGGCTGGGGTCTGGATGCCTGGTGTGGCCTCATGCAGACTCTCTGGGCAGGTACCACAGTATGACGCGACAGCTGCTCCGCAAGGCTGACGGGGTGGTGCTCATGTACGACATCACCTCCCAGGAGAGCTTTGCCCACGTGCGCTACTGGCTAGACTGTCTCCAGGTGAGCAGATGGCTGCTGGGGTTGGCCCCATGCCAGTCGGATAGTGTTCC | 1.11
20 | GATGGACCCTATACGCGGCGTAGGCAAAGAGGAAGCCCAAGATAGGGGAAGGCCAGGGTGTTGGTTCCTCAGTTTGTTGAAATCAGAGTCATGAAGCAAGACAAGCCAGGGCTTGCTCAGCATTTCTCCTTCCTGGCATGGGTTCACCTCAGCCCCAATTCAGTGGCAGCTCTGTTGGTTCAGAGGGGTGAGGTATCCAAGAGGAGGAAGTGCCAGTCGGATAGTGTTCC | 0.015
21 | GATGGACCCTATACGCGGCCCAGGCTGTAGATGTTCCAGGCTCCCCACTGAGGTATCACAGAAGGCTGGGTGGGGAGCTGGCACTTTCATCCTCACCAGTTGATAGTAAGAACCTCCCTCTTCTACGCTGGTACCCATGAAGACCATGTGGGTAGCCTGGACTCCACTCCCACCTGGTGGTAACAAGGCAACCTATCACCAGTGTCAGTGTGCCAGTCGGATAGTGTTCC | 0.591
22 | GATGGACCCTATACGCGGCGGAGAGGAAGCCATCAGCGTAGCCATGGTGAGCTTTATCTTTCCCACCCTCGGAAGCACAGACATGGCCCGGCACGTGGCTCACGCCTGTAATCCCAACAGTTTGGGAAGCTGAGGCACGAGGATCGCTTGAGTTCACGAGTCAAGAGTTGGAGACCAGCCTGGGCAACATGGCGACACCTTGTCTGTACTTGCCAGTCGGATAGTGTTCC | 0.56
23 | GATGGACCCTATACGCGGCGTATTTGTGCGTGTGTGTGTCTGAGGGTCTGTGTGCATGTGTGTATGTGCTCATGGGTGTGCATTTGTGCACGTGTGTGTGAGTGGCCCAAATGGGCACGCACTGTGTGTCCAGCACACATTGGTTCCCCCATCCCCCTGCACCCCACCCCATCTCCACCCCCCAGGACTTCATACCCATTACCCATGTGCTGCCAGTCGGATAGTGTTCC | 1.27
24 | GATGGACCCTATACGCGGCATAGATGGAGAGGATTTCAAGTGATGTTTTCTGAAGATGGTTCTGTTGTCCCGGGAGAGCCCTTGGCGGACATGGTAGTGCCAGTCAGAGCCCTTGACGCTGTGCAGCCAGGTGGCTTATTGTCCCAGTGACTTTCCAACCAGATACTCTCAGTCAGAGTGAAGGGCTCCACTTAGAAACTCCCTTTCCCATGCCAGTCGGATAGTGTTCC | 0.00407

Quoted from the listing.
GATGGACCCTATACGCGGCCCCACGGACACACATACATCAACACCCCCAAAACACACCCACATGTCACCAACTCTCAGGACACACGTAGATCAGGCACACACAGACACATGCCATCAGACCTCAACACACCACCAGACACCAACCCACCCTCCTCACGCAACCCTCAAACATCATCACCAACTGTCAGCAACACACACACACACACACCCTGCCAGTCGGATAGTGTTCC – binding signal (log2 relative supershift): 0.676
GATGGACCCTATACGCGGCCTAAGTGCGGTCTCCAAATCACGATGATCAGCATCACTTGTTGGAACTTGTTGGGAATGCAAATTATCAAGCCCCACCCCAGACCTTTGTGATCTAAAAGCCCTCCAGGTGATTCTGATCCACACTGAAGCACGAGAACCACTGACCTTAGGAACTGTTACCTGTTCCTTTGCTTCCGTAGAGTGAAGTAATGCCAGTCGGATAGTGTTCC – binding signal (log2 relative supershift): 0.354
